Test results from paper PMC12010153.
No constants are given. Whether binding was seen depends on the method and setting. In cells and extracts the contact can be indirect. Some binding calls cover weakened binding; strength is not graded here. Tags and fused reporters may be left off the sequences shown.

Protein sequences, listed by entry. Tags and fused reporters are not part of them.
UniProt P36405: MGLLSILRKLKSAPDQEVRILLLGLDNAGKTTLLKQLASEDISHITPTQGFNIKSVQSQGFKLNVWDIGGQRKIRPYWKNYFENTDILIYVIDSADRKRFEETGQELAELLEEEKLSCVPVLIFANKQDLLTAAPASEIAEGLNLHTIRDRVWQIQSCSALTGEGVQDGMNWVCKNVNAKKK

Target: T1, RP2-GFP (UniProt O75695)
T1 sequence: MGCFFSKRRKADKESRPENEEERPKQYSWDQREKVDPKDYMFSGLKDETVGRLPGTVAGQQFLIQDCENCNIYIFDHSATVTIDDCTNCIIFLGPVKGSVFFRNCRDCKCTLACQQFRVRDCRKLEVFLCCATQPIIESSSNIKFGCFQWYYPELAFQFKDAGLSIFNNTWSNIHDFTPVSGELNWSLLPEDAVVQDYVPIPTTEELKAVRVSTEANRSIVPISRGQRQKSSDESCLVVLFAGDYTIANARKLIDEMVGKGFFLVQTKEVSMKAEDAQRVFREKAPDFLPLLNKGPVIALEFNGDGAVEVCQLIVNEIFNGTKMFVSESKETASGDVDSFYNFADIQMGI
Test: co-IP; HEK293 cells co-transfected with GFP-RP2 and VSV-ARL3 plasmids, 48 h; lysis in 10 mM Tris/Cl pH 7.5, 150 mM NaCl, 0.5 mM EDTA, 0.5% Nonidet P40 Substitute; lysates on GFP-Trap Magnetic Agarose beads; blots with anti-GFP and anti-VSV

With ARL3-WT-VSV (from UniProt P36405 1-182) the binding was “binds”.
